Results on 1 substance are retold here after PMC11846196.

Amino acid sequences for entries named in this document (tags omitted).
UniProt Q7L576: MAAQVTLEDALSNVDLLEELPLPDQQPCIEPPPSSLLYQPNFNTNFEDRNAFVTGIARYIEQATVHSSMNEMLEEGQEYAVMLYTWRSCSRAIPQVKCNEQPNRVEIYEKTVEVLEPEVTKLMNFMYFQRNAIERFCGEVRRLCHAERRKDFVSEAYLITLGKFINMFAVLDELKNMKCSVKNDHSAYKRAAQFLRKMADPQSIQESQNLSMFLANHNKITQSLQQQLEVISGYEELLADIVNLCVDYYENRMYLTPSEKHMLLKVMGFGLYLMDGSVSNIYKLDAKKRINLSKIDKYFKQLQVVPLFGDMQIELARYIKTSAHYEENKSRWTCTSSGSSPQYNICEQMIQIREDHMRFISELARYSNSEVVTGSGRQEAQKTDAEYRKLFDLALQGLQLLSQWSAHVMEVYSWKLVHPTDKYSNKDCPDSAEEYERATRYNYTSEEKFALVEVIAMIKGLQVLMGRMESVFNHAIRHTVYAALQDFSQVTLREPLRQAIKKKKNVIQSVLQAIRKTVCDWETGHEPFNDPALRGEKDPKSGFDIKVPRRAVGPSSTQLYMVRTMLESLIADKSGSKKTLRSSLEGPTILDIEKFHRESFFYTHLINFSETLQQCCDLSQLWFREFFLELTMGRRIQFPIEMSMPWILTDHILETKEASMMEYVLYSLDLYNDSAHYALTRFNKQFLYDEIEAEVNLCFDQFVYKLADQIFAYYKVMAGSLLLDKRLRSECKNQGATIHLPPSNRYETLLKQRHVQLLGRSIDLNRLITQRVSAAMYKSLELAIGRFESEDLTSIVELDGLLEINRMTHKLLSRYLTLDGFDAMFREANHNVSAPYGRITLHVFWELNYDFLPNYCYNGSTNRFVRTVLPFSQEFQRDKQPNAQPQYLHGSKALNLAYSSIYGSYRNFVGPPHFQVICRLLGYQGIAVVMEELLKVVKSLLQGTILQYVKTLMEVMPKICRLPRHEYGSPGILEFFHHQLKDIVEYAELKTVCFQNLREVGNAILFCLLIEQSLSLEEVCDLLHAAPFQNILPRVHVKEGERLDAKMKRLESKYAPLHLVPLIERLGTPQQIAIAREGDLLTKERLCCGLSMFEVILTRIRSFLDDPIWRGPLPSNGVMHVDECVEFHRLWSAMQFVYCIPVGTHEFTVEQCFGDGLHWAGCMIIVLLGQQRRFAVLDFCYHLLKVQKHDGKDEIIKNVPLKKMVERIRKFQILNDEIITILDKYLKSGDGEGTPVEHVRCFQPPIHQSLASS
UniProt O43148: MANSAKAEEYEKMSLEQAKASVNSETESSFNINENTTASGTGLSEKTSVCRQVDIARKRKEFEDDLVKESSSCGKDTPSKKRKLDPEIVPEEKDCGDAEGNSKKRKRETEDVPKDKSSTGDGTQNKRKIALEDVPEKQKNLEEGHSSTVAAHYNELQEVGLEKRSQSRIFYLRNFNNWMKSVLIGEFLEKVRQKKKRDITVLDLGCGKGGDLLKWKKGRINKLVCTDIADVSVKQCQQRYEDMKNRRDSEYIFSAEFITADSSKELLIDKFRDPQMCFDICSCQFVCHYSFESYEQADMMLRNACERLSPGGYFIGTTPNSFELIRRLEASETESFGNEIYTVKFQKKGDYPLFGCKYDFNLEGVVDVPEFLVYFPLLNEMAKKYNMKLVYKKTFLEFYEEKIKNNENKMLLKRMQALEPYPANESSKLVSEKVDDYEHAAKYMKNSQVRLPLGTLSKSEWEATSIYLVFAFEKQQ

Results are given in words; binding and its absence hold for the method and conditions named. In cells and extracts the contact can be indirect. Some binding calls cover weakened binding; strength is not graded here.

The target of the assay is Cytoplasmic FMR1 Interacting Protein 1 (human (in U2OS / OS cells)) (UniProt Q7L576). Put plainly: co-IP; OS cell lysate in Pierce IP Lysis Buffer, 5 ug anti-CYFIP1 antibody with magnetic beads overnight at 4 C, western blotting. Background: In western blotting, separated proteins are transferred to a membrane and probed.

For the substance “RNA Guanine-7 Methyltransferase (from UniProt O43148 1-476) (enzyme)”, the binding entry is “binds”.
